Data as given in publication doi:10.1101/2021.10.13.464285.
Results are given in words; binding and its absence hold for the method and conditions named. Some entries that bind do so weakly or less than the wild type.

Biological target: Respiratory syncytial virus matrix (M) protein (respiratory syncytial virus, strain rA2-mK+ (parent strain A2)) (UniProt P0DOE7)
Experiment: cryo-EM structure

B1: Respiratory syncytial virus matrix (M) protein (protein, UniProt P0DOE7 1-256)
chain: METYVNKLHEGSTYTAAVQYNVLEKDDDPASLTIWVPMFQSSMPADLLIKELANVNILVKQISTPKGPSLRVMINSRSAVLAQMPSKFTICANVSLDERSKLAYDVTTPCEIKACSLTCLKSKNMLTTVKDLTMKTLNPTHDIIALCEFENIVTSKKVIIPTYLRSISVRNKDLNTLENITTTEFKNAITNAKIIPYSGLLLVITVTDNKGAFKYIKPQSQFIVDLGAYLEKESIYYVTTNWKHTATRFAIKPMED
In the case of B1, the binding is reported as “binds”.
